Reference: article PMC11396530
No constants are given. Whether binding was seen depends on the method and setting. Binding seen in cells or lysates may run through a third protein. A yes stands for co-enrichment or nearness to the bait. Other partners may have been found. Tags and fused reporters may be left off the sequences shown.

Protein sequences, listed by entry. Tags and fused reporters are not part of them. Residues count along the entry.
UniProt P11021, residues 19-654: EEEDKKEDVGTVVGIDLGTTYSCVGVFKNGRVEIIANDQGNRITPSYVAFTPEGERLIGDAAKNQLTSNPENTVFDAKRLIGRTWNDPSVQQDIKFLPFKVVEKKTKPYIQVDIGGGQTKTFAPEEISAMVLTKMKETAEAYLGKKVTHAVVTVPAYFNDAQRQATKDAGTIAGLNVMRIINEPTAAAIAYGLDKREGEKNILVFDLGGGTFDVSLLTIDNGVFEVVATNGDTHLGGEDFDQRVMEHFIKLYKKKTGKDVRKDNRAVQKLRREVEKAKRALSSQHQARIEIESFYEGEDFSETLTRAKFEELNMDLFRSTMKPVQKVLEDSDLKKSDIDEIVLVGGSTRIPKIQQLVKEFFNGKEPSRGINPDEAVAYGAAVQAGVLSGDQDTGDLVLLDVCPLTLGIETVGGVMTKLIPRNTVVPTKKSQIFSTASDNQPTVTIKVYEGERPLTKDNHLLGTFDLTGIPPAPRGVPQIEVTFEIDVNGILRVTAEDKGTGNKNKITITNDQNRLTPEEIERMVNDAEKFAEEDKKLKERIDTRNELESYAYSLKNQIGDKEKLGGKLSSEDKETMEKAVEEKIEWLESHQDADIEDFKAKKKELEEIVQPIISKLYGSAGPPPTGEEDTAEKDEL

Molecular target: T1, glucosidase I (GCS1), endogenous (human (endogenous in DLD-1 and RKO)) (UniProt Q13724)
T1 sequence: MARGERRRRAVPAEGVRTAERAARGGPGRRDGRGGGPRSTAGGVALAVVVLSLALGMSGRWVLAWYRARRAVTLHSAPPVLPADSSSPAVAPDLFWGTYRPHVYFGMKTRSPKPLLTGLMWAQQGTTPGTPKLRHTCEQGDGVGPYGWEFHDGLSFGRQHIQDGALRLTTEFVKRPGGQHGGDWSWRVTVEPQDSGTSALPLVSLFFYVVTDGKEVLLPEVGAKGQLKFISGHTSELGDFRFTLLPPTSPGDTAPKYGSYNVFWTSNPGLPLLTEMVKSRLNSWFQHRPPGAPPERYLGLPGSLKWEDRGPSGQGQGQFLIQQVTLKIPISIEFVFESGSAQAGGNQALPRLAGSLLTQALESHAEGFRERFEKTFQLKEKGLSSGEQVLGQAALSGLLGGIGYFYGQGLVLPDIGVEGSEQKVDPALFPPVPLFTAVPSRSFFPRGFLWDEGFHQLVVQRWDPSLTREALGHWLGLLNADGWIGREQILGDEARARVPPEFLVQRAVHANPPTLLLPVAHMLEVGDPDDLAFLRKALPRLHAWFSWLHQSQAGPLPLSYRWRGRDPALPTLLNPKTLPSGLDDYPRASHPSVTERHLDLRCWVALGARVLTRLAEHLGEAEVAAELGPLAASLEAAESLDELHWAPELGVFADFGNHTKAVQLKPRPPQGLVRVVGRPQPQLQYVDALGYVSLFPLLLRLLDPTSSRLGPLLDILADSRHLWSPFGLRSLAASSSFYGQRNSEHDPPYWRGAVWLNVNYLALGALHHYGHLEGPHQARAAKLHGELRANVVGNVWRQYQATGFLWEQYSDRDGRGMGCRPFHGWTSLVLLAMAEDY
Test: affinity purification with mass spectrometry; IP of endogenous GCS1 from DLD-1 cell lysate with anti-GCS1 on Protein A/G magnetic beads (IgG as negative control), silver staining and LC-MS

- binding: binds
Substance: GRP78, endogenous (from UniProt P11021 19-654)
